According to patent US11660286B2, “Methods and compositions comprising a nitrite-reductase promoter for treatment of medical disorders and preservation of blood products” (EpicentRx, Inc., priority 2011, dated 2023):

Tested on: hemorrhagic shock
Test: Resuscitation from hemorrhagic shock, hamster window chamber model: systemic parameters
Procedure: Experiments were performed in 55-65 g male Golden Syrian Hamsters (Charles River Laboratories, Boston, Mass.) fitted with a dorsal skinfold window chamber. Animal handling and care followed the NIH Guide for the Care and Use of Laboratory Animals. The hamster window chamber model is widely used for microvascular studies in the unanesthetized state. The complete surgical technique is described in detail elsewhere, such as in Colantuoni et al. in Am J Physiol 1984; 246:H508-17. […]
Conscious animal was placed in a restraining tube with a longitudinal slit from which the window chamber protruded, then fixed to the microscopic stage for transillumination with the intravital microscope (BX51WI, Olympus, New Hyde Park, N.Y.). […] Systemic (MAP, HR, Het, Hb, PaO2, PaCO2, pH, lactate, plasma nitrite, and metHb) and microvascular (artciorlar and venular diameters, blood flow, and FCD) parameters were analyzed, as previously described (e.g., in P. Nachuraju et al. in Resuscitation 2011; 82:607-613; Cabrales P. in Resuscitation 2009; 80:1431-6; Cabrales et al. in Shock 2007; 27:380-9; and Cabrales et al. in Am J Physiol 2004; 287:H363-73) before hemorrhage (baseline), after hemorrhage (shock), and up to 90 min after volume replacement (resuscitation). […]

Compound | Nitrite (plasma) (hamster, in vivo) | Nitrite (plasma) (Resuscitation (90 min), mean ± SD) [nM]
O=NO [Nitrite, sodium nitrite] | 791 ± 100 nM and 457 ± 23 nM | –
O=C(CBr)N1CC([N+](=O)[O-])([N+](=O)[O-])C1 [RRx-001] | – | 636 ± 54

Values joined by “and” are separate entries in the source; they are usually repeats but may differ in a detail not shown here. Equal values may be shown once.
